Results as given in publication PMC5722644.
No constants are given. Whether binding was seen depends on the method and setting. Binding seen in cells or lysates may run through a third protein. A yes stands for co-enrichment or nearness to the bait. Other partners may have been found. Sequences can lack the tags named with a protein.

T1: FLAG-tagged Drosophila spartin (Drosophila) (UniProt Q9VN45)
T1 sequence: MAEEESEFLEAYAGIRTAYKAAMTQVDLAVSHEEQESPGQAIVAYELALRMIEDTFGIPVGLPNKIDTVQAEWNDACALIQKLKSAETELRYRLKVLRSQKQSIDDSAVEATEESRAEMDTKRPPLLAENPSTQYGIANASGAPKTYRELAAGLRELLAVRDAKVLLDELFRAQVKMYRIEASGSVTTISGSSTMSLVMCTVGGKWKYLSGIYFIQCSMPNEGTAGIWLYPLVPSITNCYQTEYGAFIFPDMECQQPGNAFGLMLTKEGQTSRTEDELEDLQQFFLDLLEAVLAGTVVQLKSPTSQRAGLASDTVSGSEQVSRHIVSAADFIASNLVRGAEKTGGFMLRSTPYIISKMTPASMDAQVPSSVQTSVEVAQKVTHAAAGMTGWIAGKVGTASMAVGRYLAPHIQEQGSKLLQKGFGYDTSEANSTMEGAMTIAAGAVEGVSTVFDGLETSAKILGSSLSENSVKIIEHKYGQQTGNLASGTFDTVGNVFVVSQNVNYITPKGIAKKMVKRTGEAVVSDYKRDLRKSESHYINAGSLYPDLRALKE

B1: 6-phosphofructo-2-kinase Pfk26 (enzyme, UniProt P40433 1-827)
chain: MFKPVDFSETSPVPPDIDLAPTQSPHHVAPSQDSSYDLLSRSSDDKIDAEKGPHDELSKHLPLFQKRPLSDTPISSNWNSPGITEENTPSDSPENSATNLKSLHRLHINDETQLKNAKIPTNDTTDYMPPSDGANEVTRIDLKDIKSPTRHHKRRPTTIDVPGLTKSKTSPDGLISKEDSGSKLVIVMVGLPATGKSFITNKLSRFLNYSLYYCKVFNVGNTRRKFAKEHGLKDQDSKFFEPKNADSTRLRDKWAMDTLDELLDYLLEGSGSVGIFDATNTSRERRKNVLARIRKRSPHLKVLFLESVCSDHALVQKNIRLKLFGPDYKGKDPESSLKDFKSRLANYLKAYEPIEDDENLQYIKMIDVGKKVIAYNIQGFLASQTVYYLLNFNLADRQIWITRSGESEDNVSGRIGGNSHLTPRGLRFAKSLPKFIARQREIFYQNLMQQKKNNENTDGNIYNDFFVWTSMRARTIGTAQYFNEDDYPIKQMKMLDELSAGDYDGMTYPEIKNNFPEEFEKRQKDKLRYRYPGIGGESYMDVINRLRPVITELERIEDNVLIITHRVVARALLGYFMNLSMGIIANLDVPLHCVYCLEPKPYGITWSLWEYDEASDSFSKVPQTDLNTTRVKEVGLVYNERRYSVIPTAPPSARSSFASDFLSRKRSNPTSASSSQSELSEQPKNSVSAQTGSNNTTLIGSNFNIKNENGDSRIPLSAPLMATNTSNNILDGGGTSISIHRPRVVPNQNNVNPLLANNNKAASNVPNVKKSAATPRQIFEIDKVDEKLSMLKNKSFLLHGKDYPNNADNNDNEDIRAKTMNRSQSHV
B2: Rpn2 (protein, UniProt P32565 1-945)
chain: MSLTTAAPLLALLRENQDSVKTYALESINNVVDQLWSEISNELPDIEALYDDDTFSDREMAALIASKVYYNLGEYESAVKYALAAKDRFDIDEKSQFVETIVSKSIEMYVQEASKQYTKDEQFYTKDIIDPKLTSIFERMIEKCLKASELKLALGIALEGYRLDIIESALKSKLDQDSTSENVKIINYLLTLAITTVTNSKFRSSILRKSFDFLMNMPNCDYLTLNKVVVNLNDAGLALQLFKKLKEENDEGLSAQIAFDLVSSASQQLLEILVTELTAQGYDPALLNILSGLPTCDYYNTFLLNNKNIDIGLLNKSKSSLDGKFSLFHTAVSVANGFMHAGTTDNSFIKANLPWLGKAQNWAKFTATASLGVIHKGNLLEGKKVMAPYLPGSRASSRFIKGGSLYGLGLIYAGFGRDTTDYLKNIIVENSGTSGDEDVDVLLHGASLGIGLAAMGSANIEVYEALKEVLYNDSATSGEAAALGMGLCMLGTGKPEAIHDMFTYSQETQHGNITRGLAVGLALINYGRQELADDLITKMLASDESLLRYGGAFTIALAYAGTGNNSAVKRLLHVAVSDSNDDVRRAAVIALGFVLLRDYTTVPRIVQLLSKSHNAHVRCGTAFALGIACAGKGLQSAIDVLDPLTKDPVDFVRQAAMIALSMILIQQTEKLNPQVADINKNFLSVITNKHQEGLAKFGACVAQGIMNAGGRNVTIQLENADTGTLDTKSVVGLVMFSQFWYWFPLAHFLSLSFTPTTVIGIRGSDQAIPKFQMNCYAKEDAFSYPRMYEEASGKEVEKVATAVLSTTARAKARAKKTKKEKGPNEEEKKKEHEEKEKERETNKKGIKETKENDEEFYKNKYSSKPYKVDNMTRILPQQSRYISFIKDDRFVPVRKFKGNNGVVVLRDREPKEPVALIETVRQMKDVNAPLPTPFKVDDNVDFPSA
B3: Atg20 (protein, UniProt Q07528 1-640)
chain: MSDLNDVQENAKLNSETRNTGKAEPPHGTTEYVAEAEISKNGVGSPKKSPKKGKVGKGDNNKVETELVHTALLEKDNPFMEEGPTGFTKSALLEIPGMRSHNLKNPNEDYEDDSEGLLPLNQESNAETCRTSLSGSINSMNGETSASEEPSVSNRKKSARIHILEAKRVSEGQGRAYIAYVIQFENSTVQRRYSDFESLRSILIRLFPMTLIPPIPEKQSIKNYGKSITGSSSKYLLPSEGSGSVDLSLSVIHASVNNSDEKLIRHRIRMLTEFLNKLLTNEEITKTSIITDFLDPNNHNWHEFVNSSSTFSSLPKSILQCNPLDPTNTTRIHAMLPIPGSSSQLLLNKESNDKKMDKERSKSFTNIEQDYKQYENLLDNGIYKYNRRTTKTYHDLKSDYNEIGEVFAQFAHEQAQVGELAEQLSYLSNAFSGSSISLEKLVGRLYYNINEPLNESVHMATSARELIKYRKLKYLQNEMIKKSLNSKRAQLEKLEAQNNEYKDVDKIIDNEMSKSHTINLERPNNNTGSGGKSYGGKLFNGFNKLASMVKDSVKYQETDPHTASINLKKEIEQLSESLEVTENDLEVISKVIKNDQLPKFSKEREVDLSEILKHYSRYMRNYARQNLEIWKEVKRHQDFA

target: T1, FLAG-tagged Drosophila spartin (Drosophila); test: affinity purification with mass spectrometry; whole-cell extracts of yeast expressing FLAG-tagged Drosophila spartin (vector control beside it) on anti-FLAG M2 agarose beads; eluates on Tricine-SDS-PAGE, lanes cut into slices, in-gel trypsin digest, LC-MS/MS

binding, binds:
B1
B2
B3
